Test: physchem
Conditions: pH 7.4, aqueous buffer, kinetic from dmso stock

COc1cc2c(cc1OC)C(=O)C(CC1CCN(Cc3ccccc3)CC1)C2.Cl (stereo not shown) [Donepezil Hydrochloride (E2020)]
solubility kinetic: 175 µM

From PMC9019904, “AD Informer Set: Chemical tools to facilitate Alzheimer's disease drug discovery” (Alzheimer's & Dementia : Translational Research & Clinical …, 2022)
